Test results from patent US20170022553.
The exact form of at least one protein or probe is not confirmed. For some assays here: Tags and fusion partners may be left off the protein sequences shown.

The chains behind the UniProt entries cited, without tags or fusion partners. Residues count along the entry.
UniProt P00582, 324-928: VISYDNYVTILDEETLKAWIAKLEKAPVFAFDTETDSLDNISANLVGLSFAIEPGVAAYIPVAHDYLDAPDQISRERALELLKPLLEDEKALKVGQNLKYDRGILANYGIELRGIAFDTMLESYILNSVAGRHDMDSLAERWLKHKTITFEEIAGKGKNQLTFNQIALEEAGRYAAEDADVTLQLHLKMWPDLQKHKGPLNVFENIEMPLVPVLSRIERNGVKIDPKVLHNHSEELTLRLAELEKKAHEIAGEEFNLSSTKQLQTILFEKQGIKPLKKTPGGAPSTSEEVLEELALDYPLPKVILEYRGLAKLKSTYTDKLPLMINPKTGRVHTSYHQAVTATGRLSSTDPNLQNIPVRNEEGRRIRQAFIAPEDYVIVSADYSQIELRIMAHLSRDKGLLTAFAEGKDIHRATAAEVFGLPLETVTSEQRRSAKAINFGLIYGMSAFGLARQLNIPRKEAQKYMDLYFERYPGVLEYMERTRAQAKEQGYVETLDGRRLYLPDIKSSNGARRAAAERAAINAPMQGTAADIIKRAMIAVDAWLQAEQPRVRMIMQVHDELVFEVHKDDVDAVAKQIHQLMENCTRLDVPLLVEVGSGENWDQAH

Legend:
Klenow fragment [1] = target: Klenow fragment (UniProt P00582); assay: SPR; conditions: SPR imaging; binds with correct dNTP (A,T,G); little response with mismatched dNTP; 300 mM KCl, 1 mM SrCl2; purified recombinant protein; label: 5' biotin on template
[2] = target: T1, Bsu DNA polymerase I large fragment (Bacillus subtilis) (UniProt O34996); assay: BLI; conditions: 3' inverted dT on template; deoxyinosine in primer [strand 2 position 29 deoxyinosine (written as G); strand 1 3' inverted dT (left out)]; dGTP, 1 mM Ni(II), 30 C; lower amplitude, higher kobs than ALK-G1; purified recombinant protein; protein details: New England Biolabs M0330L; label: 5' biotin on template; letters built from the parent sequence and the stated change
T1 sequence (looked up, limits assumed): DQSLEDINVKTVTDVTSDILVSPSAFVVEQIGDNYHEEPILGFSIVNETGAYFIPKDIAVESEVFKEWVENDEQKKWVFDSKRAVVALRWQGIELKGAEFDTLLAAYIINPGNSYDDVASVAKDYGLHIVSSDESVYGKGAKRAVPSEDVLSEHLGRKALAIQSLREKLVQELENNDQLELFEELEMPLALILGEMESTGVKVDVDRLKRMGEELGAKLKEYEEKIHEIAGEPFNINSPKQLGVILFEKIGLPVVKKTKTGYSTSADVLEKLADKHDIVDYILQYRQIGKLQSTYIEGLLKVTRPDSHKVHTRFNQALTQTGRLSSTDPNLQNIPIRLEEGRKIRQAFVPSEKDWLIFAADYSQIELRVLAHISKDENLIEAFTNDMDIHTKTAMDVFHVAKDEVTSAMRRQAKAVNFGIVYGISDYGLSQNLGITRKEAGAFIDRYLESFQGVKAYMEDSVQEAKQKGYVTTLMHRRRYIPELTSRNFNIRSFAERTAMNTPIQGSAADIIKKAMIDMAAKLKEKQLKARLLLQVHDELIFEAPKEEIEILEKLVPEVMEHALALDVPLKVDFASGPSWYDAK

[3] = target: Klenow fragment (3'->5' exo-) of E. coli DNA polymerase I (Escherichia coli) (UniProt P00582); assay: BLI; conditions: 3' inverted dT on template; strong with correct dNTP and Ni, Ba or Sr; Ni stabilizes ternary complex over 10 min; poor without dNTP; purified recombinant protein; protein details: Enzymatics P7010-LC-L; label: 5' biotin on …
Bst 2.0 DNA polymerase = assay: BLI; conditions: ternary complex with correct dNTP; LS buffer + 150 mM NaCl, no Mg; 5 of 6 bases called; purified recombinant protein; label: 5' biotin on template
Klenow fragment [4] = target: Klenow fragment (UniProt P00582); assay: BLI; conditions: 100 nM klenow, 1 mM SrCl2; only correct ternary complex stabilized in wash with 50 uM dNTP; purified recombinant protein; label: 5' biotin on template

GGCAAATCACCAGAAGGCGGTTCCTGAATGAATGGGAAGCCTTCAAGAAGGTGATAAGCAGGAGAAACATACGAAGCATCATAACGATACCACTGACCCTC / GAGGGTCAGTGGTATCGTTATG [phiX_matchA/FP2 primer-template]
binding result (Klenow fragment [1]): binds

GTGAGCCTGCAATCCCTGCCCCGGTTCATCCTGCTGGAGCTCATGGCGGG / CCCGCCATGAGCTCCAGCAGGATGAACCGGGGCA [ALK-G3 primer-template]
binding result [2]: binds

GTGAGCCTGCAATCCCTGCCCCGGTTCATCCTGATGGAGCTCATGGCGGG / CCCGCCATGAGCTC [ALK C4493A/4496-4509AS primer-template]
binding result [3]: binds

GGCAAATCACCAGAAGGCGGTTCCTGAATGAATGGGAAGCCTTCAAGAAGGTGATAAGCAGGAGAAACATACGAAGGCGCATAACGATACCACTGACCCTC / GAGGGTCAGTGGTATCGTTATG [phiX_matchC/FP2 primer-template]
binding result (Bst 2.0 DNA polymerase): binds | binding result (Klenow fragment [4]): binds
